PubChem BioAssay AID504808 | Drosophila RNAi Screening Center | 2011

Purpose: 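Chromatin factors that keep E2F targets switched off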 (primary screen)
System: Drosophila S2 cells
Knock-down reagent: long dsRNA against Drosophila genes
Measured: 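Firefly luciferase driven by E2F sites, normalised to Renilla luciferase on the same minimal promoter, measured by plate reader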
Direction: E2F firefly: higher = more E2F reporter activity; Renilla normaliser: higher = more normaliser reporter signal
Active means: 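a knock-down counted as active when the firefly/Renilla E2F signal rose above 50%, a threshold chosen arbitrarily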
In all, the deposit lists about 21,000 reagents; this is a random part of those with a known target gene and a result. In the full data, 18 (0.084%) are marked active. 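Raw counts without plate normalisation, one of two replicates; the ratio scores behind the calls were not deposited.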 Entries without a mark were called inactive. Not stated in the record: the amount of reagent, the time to read-out.

{"Gene": "Men-b (GeneID 43936)", "DRSC id": "DRSC16736", "E2F firefly, rep 1": 1.19e5, "Renilla normaliser, rep 1": 6014}
{"Gene": "CG5883 (GeneID 39352)", "DRSC id": "DRSC10552", "E2F firefly, rep 1": 1.29e5, "Renilla normaliser, rep 1": 7273}
{"Gene": "CG34047 (retired record) (GeneID 3885666)", "DRSC id": "DRSC07857", "E2F firefly, rep 1": 1.48e5, "Renilla normaliser, rep 1": 4018}
{"Gene": "Tbc1d8-9 (GeneID 40361)", "DRSC id": "DRSC11820", "E2F firefly, rep 1": 86799, "Renilla normaliser, rep 1": 3536}
{"Gene": "POLDIP2 (GeneID 40655)", "DRSC id": "DRSC12194", "E2F firefly, rep 1": 72909, "Renilla normaliser, rep 1": 3674}
{"Gene": "eIF3l (GeneID 39386)", "DRSC id": "DRSC10530", "E2F firefly, rep 1": 1.41e5, "Renilla normaliser, rep 1": 7653}
{"Gene": "St3 (GeneID 37743)", "DRSC id": "DRSC04505", "E2F firefly, rep 1": 81124, "Renilla normaliser, rep 1": 3590}
{"Gene": "CkIIbeta (GeneID 32132)", "DRSC id": "DRSC20230", "E2F firefly, rep 1": 82184, "Renilla normaliser, rep 1": 5705}
{"Gene": "Cdc50 (GeneID 32615)", "DRSC id": "DRSC20224", "E2F firefly, rep 1": 1.47e5, "Renilla normaliser, rep 1": 6658}
{"Gene": "CG9030 (GeneID 32427)", "DRSC id": "DRSC20139", "E2F firefly, rep 1": 2.33e5, "Renilla normaliser, rep 1": 7136}
{"Gene": "RagC-D (GeneID 35793)", "DRSC id": "DRSC07239", "E2F firefly, rep 1": 3829, "Renilla normaliser, rep 1": 52}
{"Gene": "okr (GeneID 33507)", "DRSC id": "DRSC00834", "E2F firefly, rep 1": 81091, "Renilla normaliser, rep 1": 4051}
{"Gene": "CG5721 (GeneID 37084)", "DRSC id": "DRSC06945", "E2F firefly, rep 1": 72902, "Renilla normaliser, rep 1": 3777}
{"Gene": "CSN5 (GeneID 42000)", "DRSC id": "DRSC16592", "E2F firefly, rep 1": 84364, "Renilla normaliser, rep 1": 4793}
{"Gene": "Tsp33B (GeneID 34590)", "DRSC id": "DRSC02418", "E2F firefly, rep 1": 1.51e5, "Renilla normaliser, rep 1": 4992}

Sorted by “Renilla normaliser, rep 1” (descending): 3 of the entries above.
{"Gene": "okr (GeneID 33507)", "DRSC id": "DRSC00834", "E2F firefly, rep 1": 81091, "Renilla normaliser, rep 1": 4051}
{"Gene": "CG5721 (GeneID 37084)", "DRSC id": "DRSC06945", "E2F firefly, rep 1": 72902, "Renilla normaliser, rep 1": 3777}
{"Gene": "RagC-D (GeneID 35793)", "DRSC id": "DRSC07239", "E2F firefly, rep 1": 3829, "Renilla normaliser, rep 1": 52}

Additional records follow:
{"Gene": "Sfp26Ad (GeneID 8673981)", "DRSC id": "DRSC00904", "E2F firefly, rep 1": 1.12e5, "Renilla normaliser, rep 1": 5149}
{"Gene": "CG12713 (GeneID 39724)", "DRSC id": "DRSC09900", "E2F firefly, rep 1": 67257, "Renilla normaliser, rep 1": 3785}
{"Gene": "ctrip (GeneID 40596)", "DRSC id": "DRSC12242", "E2F firefly, rep 1": 1.06e5, "Renilla normaliser, rep 1": 6973}
{"Gene": "ctrip (GeneID 40596)", "DRSC id": "DRSC12287", "E2F firefly, rep 1": 68258, "Renilla normaliser, rep 1": 3088}
{"Gene": "CG10481 (GeneID 35273)", "DRSC id": "DRSC02063", "E2F firefly, rep 1": 96880, "Renilla normaliser, rep 1": 3922}
{"Gene": "Gadd45 (GeneID 35646)", "DRSC id": "DRSC06033", "E2F firefly, rep 1": 1.38e5, "Renilla normaliser, rep 1": 4765}
{"Gene": "eEF2 (GeneID 35422)", "DRSC id": "DRSC03737", "E2F firefly, rep 1": 99316, "Renilla normaliser, rep 1": 4716}
{"Gene": "CG12490 (GeneID 37623)", "DRSC id": "DRSC04123", "E2F firefly, rep 1": 1.00e5, "Renilla normaliser, rep 1": 4514}
{"Gene": "ssx (GeneID 31086)", "DRSC id": "DRSC18492", "E2F firefly, rep 1": 1391, "Renilla normaliser, rep 1": 840}
{"Gene": "RPA3 (GeneID 32113)", "DRSC id": "DRSC19658", "E2F firefly, rep 1": 1.50e5, "Renilla normaliser, rep 1": 6694}
{"Gene": "CG16985 (GeneID 38323)", "DRSC id": "DRSC08501", "E2F firefly, rep 1": 1.11e5, "Renilla normaliser, rep 1": 4713}
{"Gene": "l(1)G0289 (GeneID 31964)", "DRSC id": "DRSC18215", "E2F firefly, rep 1": 8502, "Renilla normaliser, rep 1": 700}
{"Gene": "CG17294 (GeneID 34155)", "DRSC id": "DRSC02596", "E2F firefly, rep 1": 1.10e5, "Renilla normaliser, rep 1": 3996}
